Results are given in words; binding and its absence hold for the method and conditions named. In cells and extracts the contact can be indirect. Binding calls can cover weak binding; strength is not graded here. Tags and fused reporters may be left off the sequences shown.
Target: HBV large envelope protein (LHB) N146A deglycosylation mutant, C-terminal flag tag (hepatitis B virus (genotype D))
Assay: co-IP; HEK293T cells co-transfected, harvested 48 h post-transfection; lysate incubated with anti-flag antibody conjugated to protein G beads at 4°C for 4 h; co-IP products analysed by immunoblotting

B1: serine incorporator 5 (SERINC5), C-terminal HA tag (protein, UniProt Q86VE9-4 1-461)
chain: MSAQCCAGQLACCCGSAGCSLCCDCCPRIRQSLSTRFMYALYFILVVVLCCIMMSTTVAHKMKEHIPFFEDMCKGIKAGDTCEKLVGYSAVYRVCFGMACFFFIFCLLTLKINNSKSCRAHIHNGFWFFKLLLLGAMCSGAFFIPDQDTFLNAWRYVGAVGGFLFIGIQLLLLVEFAHKWNKNWTAGTASNKLWYASLALVTLIMYSIATGGLVLMAVFYTQKDSCMENKILLGVNGGLCLLISLVAISPWVQNRQPHSGLLQSGVISCYVTYLTFSALSSKPAEVVLDEHGKNVTICVPDFGQDLYRDENLVTILGTSLLIGCILYSCLTSTTRSSSDALQGRYAAPELEIARCCFCFSPGGEDTEEQQPGKEGPRVIYDEKKGTVYIYSYFHFVFFLASLYVMMTVTNWFNYESANIESFFSGSWSIFWVKMASCWICVLLYLCTLVAPLCCPTREFSV
binding: binds

— PMC7216740
